Source: publication PMC6458987
No constants are given. Whether binding was seen depends on the method and setting. Binding seen in cells or lysates may run through a third protein. A yes stands for co-enrichment or nearness to the bait. Other partners may have been found.

The chains behind the UniProt entries cited, without tags or fusion partners. Residues count along the entry.
UniProt Q8TEQ6: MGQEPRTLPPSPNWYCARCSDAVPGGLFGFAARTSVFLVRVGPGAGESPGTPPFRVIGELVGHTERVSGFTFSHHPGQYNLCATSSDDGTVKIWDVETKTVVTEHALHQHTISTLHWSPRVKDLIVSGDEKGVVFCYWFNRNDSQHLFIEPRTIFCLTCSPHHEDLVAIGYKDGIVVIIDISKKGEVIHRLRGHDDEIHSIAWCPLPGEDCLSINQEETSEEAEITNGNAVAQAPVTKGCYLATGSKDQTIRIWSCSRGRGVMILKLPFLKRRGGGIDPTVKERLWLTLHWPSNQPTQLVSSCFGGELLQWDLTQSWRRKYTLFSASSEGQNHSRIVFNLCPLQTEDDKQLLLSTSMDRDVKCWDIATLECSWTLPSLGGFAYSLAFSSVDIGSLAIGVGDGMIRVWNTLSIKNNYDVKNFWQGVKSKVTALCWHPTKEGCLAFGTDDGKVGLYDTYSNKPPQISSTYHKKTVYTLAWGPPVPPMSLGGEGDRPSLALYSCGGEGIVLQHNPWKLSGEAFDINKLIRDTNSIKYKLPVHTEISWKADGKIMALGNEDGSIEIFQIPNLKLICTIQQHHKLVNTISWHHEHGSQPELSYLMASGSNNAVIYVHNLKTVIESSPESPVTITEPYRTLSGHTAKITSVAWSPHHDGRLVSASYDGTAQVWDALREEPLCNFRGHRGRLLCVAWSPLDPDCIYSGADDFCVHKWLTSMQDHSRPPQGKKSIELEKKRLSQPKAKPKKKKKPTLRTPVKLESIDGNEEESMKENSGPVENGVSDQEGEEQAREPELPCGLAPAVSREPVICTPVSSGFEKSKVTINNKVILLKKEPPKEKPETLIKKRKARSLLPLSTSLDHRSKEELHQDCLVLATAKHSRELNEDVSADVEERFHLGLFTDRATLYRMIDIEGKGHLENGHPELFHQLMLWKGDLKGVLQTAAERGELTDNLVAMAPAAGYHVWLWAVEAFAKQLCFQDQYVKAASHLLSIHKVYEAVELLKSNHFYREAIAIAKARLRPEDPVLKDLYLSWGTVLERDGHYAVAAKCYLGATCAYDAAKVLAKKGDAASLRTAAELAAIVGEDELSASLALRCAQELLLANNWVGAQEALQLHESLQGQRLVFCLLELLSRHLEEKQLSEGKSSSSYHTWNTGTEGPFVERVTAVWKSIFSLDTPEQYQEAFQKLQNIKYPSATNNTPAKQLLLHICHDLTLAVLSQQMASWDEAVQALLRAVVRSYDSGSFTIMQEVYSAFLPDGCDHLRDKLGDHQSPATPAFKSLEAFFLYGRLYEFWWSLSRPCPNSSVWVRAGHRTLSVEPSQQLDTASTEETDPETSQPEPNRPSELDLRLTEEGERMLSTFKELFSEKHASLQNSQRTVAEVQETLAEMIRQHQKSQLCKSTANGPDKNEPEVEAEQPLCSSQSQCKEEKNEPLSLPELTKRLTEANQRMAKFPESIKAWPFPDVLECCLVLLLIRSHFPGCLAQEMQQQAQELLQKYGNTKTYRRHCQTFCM
UniProt P03316, residues 1-264: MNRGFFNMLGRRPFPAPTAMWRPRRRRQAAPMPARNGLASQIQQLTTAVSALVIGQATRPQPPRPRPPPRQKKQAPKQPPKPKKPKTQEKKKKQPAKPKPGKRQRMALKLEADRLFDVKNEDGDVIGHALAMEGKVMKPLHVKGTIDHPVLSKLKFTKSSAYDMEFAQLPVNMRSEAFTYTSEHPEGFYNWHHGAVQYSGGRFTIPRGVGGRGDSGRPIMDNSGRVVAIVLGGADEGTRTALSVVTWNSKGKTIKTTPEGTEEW

Biological target: GEMIN5-eGFP (human) (UniProt Q8TEQ6)
Assay: affinity purification with mass spectrometry

SINV capsid (from UniProt P03316) was tested, and the binding was “binds”.
